In all, about 33,000 sequences were measured (“E-score (-0.5 to 0.5)”: median about -0.0014, highest 2% from about 0.25 on). The list shows a part of the results.

Results on 86 sequences are retold here after the supplement of paper PMC3334620.

This assay concerns the target T1, Cad1 (UniProt P24813).
T1 sequence: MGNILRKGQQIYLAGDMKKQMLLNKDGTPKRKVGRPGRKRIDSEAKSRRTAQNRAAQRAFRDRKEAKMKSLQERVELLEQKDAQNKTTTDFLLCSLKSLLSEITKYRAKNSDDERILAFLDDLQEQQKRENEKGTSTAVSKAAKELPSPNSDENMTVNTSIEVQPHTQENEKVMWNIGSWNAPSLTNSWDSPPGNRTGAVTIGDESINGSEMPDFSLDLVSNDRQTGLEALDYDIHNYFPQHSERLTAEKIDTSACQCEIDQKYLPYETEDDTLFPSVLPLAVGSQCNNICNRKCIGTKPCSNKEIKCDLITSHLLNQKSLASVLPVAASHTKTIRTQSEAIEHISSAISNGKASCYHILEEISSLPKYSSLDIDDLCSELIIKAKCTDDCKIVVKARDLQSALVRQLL
Put plainly: PBM E-score (8-mer binding enrichment) (E-score (-0.5 to 0.5)); higher = stronger / more preferred TF binding. The following applies: protein concentration: 100 nM; construct: GST-full length. The method in brief:
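Each ungapped eight-base word and its reverse complement, pooled, received an E-score from the Universal PBM Analysis Suite. Underlying scans, normalised with masliner, recorded fluorescent anti-GST bound to GST-tagged yeast transcription factors. These were applied at about 100-200 nM to universal all-10-mer Agilent arrays double-stranded by primer extension.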
Consider AGTATCTG, for which the “PBM E-score” value was -0.0638. Regarding ACGATGCA, the “PBM E-score” value worked out at 0.0623. With ATAGTAGA the figure was 0.0175; with GAGGTATA, 0.0423; with TATATGAA, 0.196. Then ATGTATGG, with -0.0491; and CCCCTGAA, with -0.0144; and AGACCCCC, with -0.362. For the sequence ATCTATTA, the “PBM E-score” value amounted to 0.107. Then AGCGCGGA, with 0.149; and CTTTGCCC, with -0.152; and ACGCACTA, with -0.0965. With GCTAGTTA the figure was -0.105; with AGCACGAT, 0.0518. Then CCTTCAAG, with -0.121; and AAGGGTAG, with -0.133; and CATCCAAG, with -0.121. For ACGAGCCC, the “PBM E-score” value was -0.201. Then GCAGAATA, with 0.096; and CAACTCAC, with 0.133; and ATACGGGC, with -0.144. With CAGTCTGG the figure was -0.134. Then AGGATATG, with 0.0939; and ATTCTATG, with 0.0831. As for ATACCGAA, the “PBM E-score” value came out at 0.133.

For the sequence TGAACAAA, the “PBM E-score” value came out at 0.165. In the case of AGCGCGTG, the “PBM E-score” value is 0.0725. With GCGGAGAC the figure was 0.267.

As for GCCTAAAC, the “PBM E-score” value worked out at 0.00973.

With ATGGCCGA, the “PBM E-score” value worked out at 0.00947. Regarding GGCGGCAA, the “PBM E-score” value was determined as 0.115. With TCGGGTAA the figure was -0.0573; with CGGCCTGC, -0.14; with AGTAGTGC, -0.0238.

GCGAAGAA: the “PBM E-score” value was 0.125.

As for GTGTCCTA, the “PBM E-score” value worked out at 0.0865. With CGGAAGCC the figure was -0.125; with AGTGGCGA, 0.106; with GCAACATA, -0.061.

Regarding GTGTCTGA, the “PBM E-score” value was determined as 0.109. On to TGACACCA, for which the “PBM E-score” value was -0.071. With ATTCCACG the figure was -0.0585; with AACTTGGA, -0.0298; with AGGCCCAC, -0.309. Turning to AAGCCGAC, the “PBM E-score” value is 0.0245. Then CGTTCAGC, with 0.165. With GAATACGC the figure was 0.131.

In the case of ACCGTCAA, the “PBM E-score” value amounted to 0.0801.

Regarding CCACCTCC, the “PBM E-score” value was -0.237. Then ACTTCCGA, with 0.0194; and AGGGCGAC, with -0.112; and AACCGCGA, with 0.287.

Turning to CGTCATAG, the “PBM E-score” value was -0.114.

With GAACATAA, the “PBM E-score” value was found to be 0.111. Consider TCACCGCA, for which the “PBM E-score” value is -0.0361. Then CCAGCTGG, with 0.0803; and GGGATGAC, with -0.0998; and ACGCTGAG, with 0.00501. With ACTCACCA the figure was -0.0208. For the sequence TAATGGAA, the “PBM E-score” value was determined as 0.143. With CGAATCAC the figure was 0.169. With AAAATACC the figure was 0.203; with AAGACCCC, -0.206. With AATCAACC the figure was -0.00133; with AGAAGTGC, -0.142; with AGCAAGCT, -0.239. Regarding GTGTTCTA, the “PBM E-score” value amounted to 0.113.

In the case of ACGGCGTA, the “PBM E-score” value turned out to be 0.0105.

For the sequence ATTTGAGA, the “PBM E-score” value turned out to be 0.0291. Then AAGGAACC, with 0.219. With AAAAGTAT, the “PBM E-score” value turned out to be 0.0548. On to CTAAGAGC, for which the “PBM E-score” value is -0.119.

With AACCTCGA, the “PBM E-score” value came out at 0.0882.

Regarding CTAAATTC, the “PBM E-score” value was -0.0152. With CGGTTCAC the figure was -0.109; with TCCGCACA, -0.0175; with ATAAAAAA, 0.148. Turning to CGTGGCGA, the “PBM E-score” value stood at 0.0504. With AACGTTAG the figure was 0.047; with GGGTACTA, 0.0733; with CACTCCTA, -0.141. For ATGAGGTA, the “PBM E-score” value was -0.02. Then GACTAAGA, with 0.0179. With AAGACGTA the figure was 0.0444; with AAGCGGAT, 0.0466. Then ATCAGTTA, with 0.212.
